The record followed here is publication PMC2572843.

Protein sequences, listed by entry. Tags and fused reporters are not part of them. Residues count along the entry.
UniProt P02769, residues 25-607: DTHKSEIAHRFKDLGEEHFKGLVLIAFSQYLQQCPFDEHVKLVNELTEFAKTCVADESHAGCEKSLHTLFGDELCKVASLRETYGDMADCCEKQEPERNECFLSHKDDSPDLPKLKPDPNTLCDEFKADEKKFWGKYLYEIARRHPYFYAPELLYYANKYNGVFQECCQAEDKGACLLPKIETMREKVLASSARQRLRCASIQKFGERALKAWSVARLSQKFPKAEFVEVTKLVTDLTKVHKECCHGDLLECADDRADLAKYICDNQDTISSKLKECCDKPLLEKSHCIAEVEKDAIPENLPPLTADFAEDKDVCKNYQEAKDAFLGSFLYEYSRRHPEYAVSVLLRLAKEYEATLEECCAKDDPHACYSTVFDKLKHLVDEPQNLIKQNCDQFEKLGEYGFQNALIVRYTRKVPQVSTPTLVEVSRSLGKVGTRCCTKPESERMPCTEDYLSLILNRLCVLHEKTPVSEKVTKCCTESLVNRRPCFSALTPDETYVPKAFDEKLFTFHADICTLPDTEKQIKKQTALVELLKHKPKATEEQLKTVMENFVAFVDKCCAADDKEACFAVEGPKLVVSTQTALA
UniProt Q03048: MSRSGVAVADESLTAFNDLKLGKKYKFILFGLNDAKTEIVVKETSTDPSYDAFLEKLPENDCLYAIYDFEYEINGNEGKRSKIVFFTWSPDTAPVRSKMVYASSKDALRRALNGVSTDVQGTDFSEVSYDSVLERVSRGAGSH
UniProt P00817: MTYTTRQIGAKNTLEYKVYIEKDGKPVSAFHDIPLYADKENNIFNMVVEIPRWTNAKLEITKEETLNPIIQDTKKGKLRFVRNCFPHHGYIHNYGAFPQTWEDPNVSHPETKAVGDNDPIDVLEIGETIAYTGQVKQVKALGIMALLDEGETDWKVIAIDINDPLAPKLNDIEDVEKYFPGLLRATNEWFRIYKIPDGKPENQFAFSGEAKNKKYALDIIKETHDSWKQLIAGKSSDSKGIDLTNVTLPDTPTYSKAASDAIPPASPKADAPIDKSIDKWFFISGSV
UniProt P00924: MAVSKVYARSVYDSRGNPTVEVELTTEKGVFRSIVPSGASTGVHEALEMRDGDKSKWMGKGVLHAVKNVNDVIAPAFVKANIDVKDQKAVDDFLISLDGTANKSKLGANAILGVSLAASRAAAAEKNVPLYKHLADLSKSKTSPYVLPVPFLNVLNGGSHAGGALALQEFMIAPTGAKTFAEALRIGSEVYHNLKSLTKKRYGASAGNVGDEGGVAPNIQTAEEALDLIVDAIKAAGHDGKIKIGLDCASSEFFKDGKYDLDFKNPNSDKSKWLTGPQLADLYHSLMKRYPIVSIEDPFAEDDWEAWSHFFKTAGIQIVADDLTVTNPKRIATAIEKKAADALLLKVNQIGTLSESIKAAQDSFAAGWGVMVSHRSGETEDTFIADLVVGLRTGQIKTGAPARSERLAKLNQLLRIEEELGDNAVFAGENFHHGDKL

These are yes or no findings as the source states them, for the method shown. Binding seen in cells or lysates may run through a third protein. These calls come from enrichment with a bait or labelling near it, and not all partners need be listed. For part of these data: A no says only that the protein was not detected with the bait.

The labels stand for the following.
B1: Ahp1p (protein, UniProt P38013 1-176)
chain: MSDLVNKKFPAGDYKFQYIAISQSDADSESCKMPQTVEWSKLISENKKVIITGAPAAFSPTCTVSHIPGYINYLDELVKEKEVDQVIVVTVDNPFANQAWAKSLGVKDTTHIKFASDPGCAFTKSIGFELAVGDGVYWSGRWAMVVENGIVTYAAKETNPGTDVTVSSVESVLAHL
B2: Pck1p (protein, UniProt P10963 1-549)
chain: MSPSKMNATVGSTSEVEQKIRQELALSDEVTTIRRNAPAAVLYEDGLKENKTVISSSGALIAYSGVKTGRSPKDKRIVEEPTSKDEIWWGPVNKPCSERTWSINRERAADYLRTRDHIYIVDAFAGWDPKYRIKVRVVCARAYHALFMTNMLIRPTEEELAHFGEPDFTVWNAGQFPANLHTQDMSSKSTIEINFKAMEMIILGTEYAGEMKKGIFTVMFYLMPVHHNVLTLHSSANQGIQNGDVTLFFGLSGTGKTTLSADPHRLLIGDDEHCWSDHGVFNIEGGCYAKCINLSAEKEPEIFDAIKFGSVLENVIYDEKSHVVDYDDSSITENTRCAYPIDYIPSAKIPCLADSHPKNIILLTCDASGVLPPVSKLTPEQVMYHFISGYTSKMAGTEQGVTEPEPTFSSCFGQPFLALHPIRYATMLATKMSQHKANAYLINTGWTGSSYVSGGKRCPLKYTRAILDSIHDGSLANETYETLPIFNLQVPTKVNGVPAELLNPAKNWSQGESKYRGAVTNLANLFVQNFKIYQDRATPDVLAAGPQFE
B3: Yhr087wp (protein, UniProt P38804 1-111)
chain: MSTVTKYFYKGENTDLIVFAASEELVDEYLKNPSIGKLSEVVELFEVFTPQDGRGAEGELGAASKAQVENEFGKGKKIEEVIDLILRNGKPNSTTSSLKTKGGNAGTKAYN
B4: Tsa1p (protein, UniProt P34760 1-196)
chain: MVAQVQKQAPTFKKTAVVDGVFDEVSLDKYKGKYVVLAFIPLAFTFVCPTEIIAFSEAAKKFEEQGAQVLFASTDSEYSLLAWTNIPRKEGGLGPINIPLLADTNHSLSRDYGVLIEEEGVALRGLFIIDPKGVIRHITINDLPVGRNVDEALRLVEAFQWTDKNGTVLPCNWTPGAATIKPTVEDSKEYFEAANK
B5: Tpi1p (protein, UniProt P00942 1-248)
chain: MARTFFVGGNFKLNGSKQSIKEIVERLNTASIPENVEVVICPPATYLDYSVSLVKKPQVTVGAQNAYLKASGAFTGENSVDQIKDVGAKWVILGHSERRSYFHEDDKFIADKTKFALGQGVGVILCIGETLEEKKAGKTLDVVERQLNAVLEEVKDWTNVVVAYEPVWAIGTGLAATPEDAQDIHASIRKFLASKLGDKAASELRILYGGSANGSNAVTFKDKADVDGFLVGGASLKPEFVDIINSRN

In one experiment the target is bovine serum albumin (bovine) (UniProt P02769). As to the kind of experiment: affinity purification with mass spectrometry; purified Tpm1 coupled to Affi-Gel 10 agarose; yeast S288c high-speed supernatant in HEK buffer (20 mM Hepes pH 7.5, 1 mM EDTA, 50 mM KCl, 10% glycerol) loaded over three hours, washed overnight, eluted with 0.5 M KCl or 3 M urea; BSA columns in parallel; MudPIT; only the target purified.
Regarding “Cof1p (endogenous yeast cofilin) (from UniProt Q03048 1-143)”, the binding entry is on record as “no binding”.

Another experiment addresses yeast tropomyosin Tpm1 (recombinant) (S. cerevisiae) (UniProt P17536). The experiment is described as above.
Ipp1p (from UniProt P00817 1-287): the binding result is “binds”.

With Eno1p (from UniProt P00924 1-437), the binding entry is given as “binds”.

For the molecule “Cof1p (endogenous yeast cofilin) (from UniProt Q03048 1-143)”, the binding result is reported as “binds”.

B1: the binding result is reported as “binds”.

As for B2, the binding entry is on record as “binds”.

Regarding B3, the binding entry is “binds”.

Take B4: the binding result is recorded as “binds”.

Take B5: the binding entry was “binds”.
